# Data reported in publication PMC7677398.
# Results are given in words; binding and its absence hold for the method and conditions named. In cells and extracts the contact can be indirect. Some binding calls cover weakened binding; strength is not graded here.
# T1: Bcl-2 (mouse (endogenous in cultured mouse GECs)), P10417
# T1 chain: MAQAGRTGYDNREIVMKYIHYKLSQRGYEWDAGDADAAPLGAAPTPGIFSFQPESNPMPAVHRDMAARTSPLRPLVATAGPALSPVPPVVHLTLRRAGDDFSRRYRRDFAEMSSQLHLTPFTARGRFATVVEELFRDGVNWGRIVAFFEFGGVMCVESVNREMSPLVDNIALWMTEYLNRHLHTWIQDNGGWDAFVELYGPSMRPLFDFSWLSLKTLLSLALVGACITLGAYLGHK
# B1: Beclin-1, O88597 1-448 (protein)
# chain: MEGSKASSSTMQVSFVCQRCSQPLKLDTSFKILDRVTIQELTAPLLTTAQAKPGETQEEEANSGEEPFIETRQDGVSRRFIPPARMMSTESANSFTLIGEASDGGTMENLSRRLKVTGDLFDIMSGQTDVDHPLCEECTDTLLDQLDTQLNVTENECQNYKRCLEILEQMNEDDSEQLQRELKELALEEERLIQELEDVEKNRKVVAENLEKVQAEAERLDQEEAQYQREYSEFKRQQLELDDELKSVENQVRYAQIQLDKLKKTNVFNATFHIWHSGQFGTINNFRLGRLPSVPVEWNEINAAWGQTVLLLHALANKMGLKFQRYRLVPYGNHSYLESLTDKSKELPLYCSGGLRFFWDNKFDHAMVAFLDCVQQFKEEVEKGETRFCLPYRMDVEKGKIEDTGGSGGSYSIKTQFNSEEQWTKALKFMLTNLKWGLAWVSSQFYNK
# Target: T1, Bcl-2 (mouse (endogenous in cultured …))
# Experiment: co-IP; endogenous proteins; precleared GEC lysates incubated with anti-Bcl-2 antibody overnight at 4 °C, protein A-agarose 2 h at 4 °C, normal rabbit IgG as control; cells untreated or treated with tunicamycin (TM)
# Conditions: remark: other sources report otherwise
binder,measurement,value
B1,binding,binds
